{"source": "patent US20060276394A1", "about": "“METHODS AND COMPOSITIONS FOR TREATING NEUROLOGICAL DISORDERS” (WYETH, priority 2002, published 2006)", "test_system": "Balb/C mice", "test": "mouse elevated zero maze (EZM)", "format": "in vivo", "conditions": "icv", "description": "To assess the anxiolytic activity of NBI-31772, mice receiving intraventricular administration of NBI-31772 were tested in an elevated zero maze (EZM) or in a four-plate appratus (FPT). NBI-31722 (availabe from Calbiochem/EMD Biosciences, Inc. of San Diego, Calif.) was administered in a volume of 2 μl. Balb/C mice were used for the elevated zero maze and Swiss-Webster mice were used for the four-plate test. One-way analysis of variance (ANOVA) was performed on behavioral data to determine effects of test compound treatments, followed by Least Significant Difference Tests for a post hoc analysis. Data is presented as the mean±SEM.\nThese effects are similar to those seen with reference anxiolytic compounds chlordiazepoxide and diazepam (Ring et al., Psychopharmacology (Berl.), 2006, 185(2):218-225) and are indicative of anxiolytic-like activity of NBI-31772 in the EZM."}
{"compound": "O=C(O)c1cc2cc(O)c(O)cc2c(C(=O)c2ccc(O)c(O)c2)n1", "note": "[NBI-31772]", "values": [{"measurement": "total distance moved (cm)", "setting": "0.1-1.0 μg groups", "result": "no effect"}, {"measurement": "total distance moved (cm)", "setting": "3 and 10 μg doses", "result": "significant increases"}]}
